Tested on: APPs secretion by NIH 3T3 cell lines

| Compound | Density of APPs band |
| --- | --- |
| COc1ccc2cc([C@H](C)C(=O)O)ccc2c1 [S-Naproxen] | 2.78 ± 0.79 |
| COc1ccc2cc([C@@H](C)C(=O)O)ccc2c1 [R-Naproxen] | 3.34 ± 0.41 |
